From PubChem BioAssay AID1347076 (National Center for Advancing Translational Sciences (NCATS), 2019)
The whole screen tested about 400,000 compounds, of which about 13,000 (3.2%) were called active. This list was built around the results that the source calls inconclusive (neither active nor inactive); the mix of calls is not that of the screen. Calls follow the shape of the dose curve; as a rule, active = well fitted cell-killing curve with a large enough effect; inconclusive = small, poorly fitted or top-dose-only effect, or effect the other way; inactive = flat fitted curve, though single readings scatter. Potencies beside an inconclusive call are fits to weak or partial responses and may not hold up.

Assay: qHTS assay for MDR1-selective chemotherapeutics: Primary screen using the drug-selected MDR subline cells KB-V1; also: nearly all actives have a fitted effect of over 60% in size
Settings: KB-V1 MDR cells viability, CellTiter-Glo, 72 h; activity change, negative = cytotoxicity: at 46.1 µM (top of the series)
In short: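 KB-V1 cells (P-gp-expressing MDR subline of KB-3-1) in phenol-red-free DMEM with 10% FBS were exposed to library compounds over a concentration series for 72 h at 37 degrees C. Viability read by CellTiter-Glo luminescence; concentration-effect curves fitted after normalization.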
% is scaled to controls: 0 for no effect and ±100 for the full control effect; potency is read from the fitted curve at half-maximal effect.

| Compound | Potency | activity change, negative = cytotoxicity |
| --- | --- | --- |
| N#Cc1ccc(/C=N/NC(=O)CCc2ccc(S(=O)(=O)N3CCOCC3)cc2)cc1 | inconclusive: 13 µM [cytotoxic, partial curve] |  |
| Cc1cccc(C(=O)NNC(=O)c2ccc(Cl)cc2)c1O |  | inactive: -16.3% |
| CCNC(=O)c1c(NC(=O)c2cc(=O)c3ccc(C)c(C)c3o2)sc2c1CCCC2 | inconclusive: 18.4 µM [rising, single point] |  |
| O=C1CCc2cc(NS(=O)(=O)c3ccc(F)cc3)cc3c2N1CCC3 |  | inactive: -1.98% |
| Oc1c(C=C2N=c3ccccc3=N2)sc(=S)n1C1CCCC1 | inconclusive: 18.4 µM [cytotoxic, single point] |  |
| O=C(c1ccncc1)N1CCN(CCc2ccccc2)CC1 |  | inactive: -15.3% |
| CCCC1C2CN(C(C)C)CC=C2C(C#N)=C(N)C1(C#N)C#N (configuration not stated) | inconclusive: 7.31 µM [cytotoxic, partial curve] |  |
| Cc1nn(-c2ccccc2)c(Cl)c1/C=N/NC(=O)CCNc1n[nH]c(=O)[nH]c1=O | inconclusive: 16.4 µM [rising, single point] |  |
| Cc1ccc(NC(=O)/C=C/c2ccc3c(c2)OCO3)cc1S(=O)(=O)N1CCOCC1 | inconclusive: 18.4 µM [cytotoxic, partial curve, poor fit] |  |
| CCCCCCN1C[C@@H](O)[C@H](n2cc(-c3ccc(F)cc3)nn2)C[C@@H]1c1ccccc1 | inconclusive: 20.6 µM [cytotoxic, partial curve, poor fit] |  |
| COc1ccccc1NC(=O)Nc1ccc(-n2ccc(C(F)(F)F)n2)cc1 | inconclusive: 29.1 µM [cytotoxic, single point] |  |
| COc1ccc(C(=O)Nc2nc3ccccc3s2)c(OC)c1 | active: 6.51 µM |  |
| Cc1ccc(OCCCC(=O)N(C)CC(=O)Nc2ccccc2Br)cc1 | inconclusive: 29.1 µM [cytotoxic, single point] |  |
| COc1cccc(CNC(=O)Cn2cccc2)c1 |  | inactive: -1.91% |
| Cc1nn(-c2ccccc2)c2c1cc1c(=O)[nH]c(=O)nc-1n2-c1cccc(C(F)(F)F)c1 | inconclusive: 4.11 µM [rising, partial curve, poor fit] |  |
| O=C(CSc1nnc2sc3ccccc3n12)N1CCN(c2ccccc2)CC1 | active: 8.2 µM |  |
| Cc1ccc(NS(=O)(=O)c2ccc3[nH]c(=O)oc3c2)cc1Cl | inconclusive: 29.1 µM [cytotoxic, single point] |  |
| CN(c1ccc(OCC(=O)N2CCCCC2)cc1)S(=O)(=O)c1cccs1 | inconclusive: 3.66 µM [cytotoxic, partial curve, poor fit] |  |
| COc1ccc(C)cc1N(C(=O)COc1cccc(F)c1)c1nc2ccccc2s1 | inconclusive: 8.2 µM [cytotoxic, partial curve] |  |
| COc1cccc(-n2cnc3c(sc4nc(N5CCOCC5)c5c(c43)CCCC5)c2=O)c1 | inconclusive: 10.3 µM [cytotoxic, partial curve] |  |
| NC(Cc1ccc(Cl)cc1)c1csc(NC(=O)NCC2CCCCC2)n1 (configuration not stated) | active: 16.4 µM |  |
| O=S(=O)(Nc1ccc(-c2ccc(N3CCCCCC3)nn2)cc1)c1ccc(C(F)(F)F)cc1 | inconclusive: 29.1 µM [cytotoxic, single point] |  |
| CCn1c(N2CCC(Cc3ccccc3)CC2)nc2c1c(=O)[nH]c(=O)n2C | inconclusive: 20.6 µM [cytotoxic, single point] |  |

| Compound | Potency | activity change, negative = cytotoxicity |
| --- | --- | --- |
| COc1ccc(OCC2c3cc(OC)c(OC)cc3CCN2C(=O)C(C)C)cc1 (configuration not stated) | inconclusive: 8.2 µM [cytotoxic, partial curve] |  |
| CC(C)n1cc(/C=C/c2cc[n+](C)cc2)c2ccccc21 |  | inactive: -14.5% |
| Cc1[nH]n(-c2ccc([N+](=O)[O-])cc2)c(=O)c1C=NCCN1CCN(C(=O)c2ccccc2)CC1 | inconclusive: 20.6 µM [cytotoxic, partial curve, poor fit] |  |
| CCN(CCNC(=O)C1CCCN(Cc2nc(-c3ccc(OC)cc3)oc2C)C1)c1ccccc1 (configuration not stated) | inconclusive: 23.1 µM [cytotoxic, single point] |  |
| CCn1c2c(c(=N)c3c1CCC3)CCCC2 | inconclusive: 9.2 µM [rising, partial curve] |  |
| CCOc1ccc(CCNC(=O)c2cc3c(=O)n(C)c4ccccc4c3s2)cc1OCC |  | inactive: 0% |
| c1ccc(-c2cc(-c3nc(-c4ccccn4)no3)c3ccccc3n2)cc1 | inconclusive: 18.4 µM [cytotoxic, single point] |  |
| O=C(CN1C(=O)c2ccccc2C1=O)Nc1sc2c(c1C(=O)NCC1CCCO1)CCC2 (configuration not stated) | inconclusive: 8.2 µM [cytotoxic, partial curve] |  |
| CCOc1cc(-c2noc(N)c2C(=O)OC)cc(OCC)c1OCC | active: 11.6 µM |  |
| COc1ccc(NC(=O)CN(C)CCOc2ccc(Cl)cc2)cc1OC | inconclusive: 2.31 µM [cytotoxic, partial curve, poor fit] |  |
| CCc1nc2c(OCC(=O)C(C)(C)C)cccn2c1N(C)C(=O)c1ccc(C)cc1 |  | inactive: -0.578% |
| Cc1cc(C)c(NC(=O)c2ccc(CN3CCc4ccccc4C3)cc2)c(C)c1 | inconclusive: 1.64 µM [cytotoxic, full curve] |  |
| COc1ccc(CN2CCN(C(=O)c3ccco3)CC2)cc1 | inconclusive: 23.1 µM [cytotoxic, partial curve, poor fit] |  |
| COc1ccc(S(=O)(=O)N2CCN(C(=O)CCC3CCCC3)CC2)cc1 | inconclusive: 20.6 µM [cytotoxic, single point] |  |
| O=c1c2ccccc2oc2cc(OCc3ccc(F)cc3)cc(O)c12 |  | inconclusive: -12.4% |
| Cn1c(C(C(=O)NCC2CCCO2)N(C(=O)Cn2nnc3ccccc32)C2CCCCC2)nc2ccccc21 (configuration not stated) | inconclusive: 11.6 µM [cytotoxic, partial curve] |  |
| COC(=O)[C@]12CCCCC=C1N(CCC1=CCCCC1)C(=O)[C@H](CC(=O)NCC1CCCCC1)C2 | inconclusive: 29.1 µM [cytotoxic, single point] |  |
| CCN(CC)c1ccc(/C=N/Nc2nn[nH]n2)cc1 |  | inactive: 16.1% |
| CCC(CO)Nc1ccc(-c2n[nH]c(=O)c3ccccc23)cc1[N+](=O)[O-] (configuration not stated) |  | inactive: -3.07% |
| COc1cccc(N2CCN(C(=O)c3cnc4c(C)cccn4c3=O)CC2)c1 | inconclusive: 29.1 µM [cytotoxic, single point] |  |
| Cc1cccc(N2CCN(C(c3ccc(F)cc3)c3nnc(-c4ccccc4)o3)CC2)c1C (configuration not stated) | inconclusive: 29.1 µM [cytotoxic, single point] |  |
| COc1ccc(-n2nc(C(=O)NCC(=O)N3CCN(Cc4ccccc4)CC3)c3ccccc3c2=O)cc1OC | inconclusive: 20.6 µM [cytotoxic, partial curve, poor fit] |  |
| CC1CCc2c(sc(NC(=O)C3CCCO3)c2C#N)C1 (configuration not stated) | inconclusive: 18.4 µM [cytotoxic, single point] |  |

| Compound | Potency | activity change, negative = cytotoxicity |
| --- | --- | --- |
| COC(=O)c1c(C)[nH]c(O)c1C=Nc1ccc(C#N)cc1 |  | inactive: 0% |
| COc1ccc(N2CCc3c(C)nc(SC)nc32)cc1 | inconclusive: 7.31 µM [cytotoxic, partial curve] |  |
| CCN1CCN(C(=O)Cn2ncc3c4ccccc4n(Cc4ccccc4F)c3c2=O)CC1 |  | inactive: -4.4% |
| Nc1cc(S(=O)(=O)N2CCCCC2)ccc1N1CCCCC1 | active: 18.4 µM |  |
| CCOC(=O)C1CCCN(C(=O)c2cc(-c3ccc(C)cc3)on2)C1 (configuration not stated) |  | inactive: -4.38% |
| Cc1ccc(C(=O)N/C(=C\c2ccc(-c3ccccc3[N+](=O)[O-])o2)C(=O)NCCCN2CCOCC2)cc1 |  | inactive: 15.5% |
| NS(=O)(=O)c1ccc(CNS(=O)(=O)Cc2ccc(Cl)cc2)cc1 | inconclusive: 18.4 µM [rising, single point] |  |
| CCn1ncc(C2=NOC(C(=O)NCc3ccc(OC)cc3)C2)c1C (configuration not stated) | inconclusive: 14.6 µM [cytotoxic, partial curve, poor fit] |  |
| CC(C)Oc1ccc(CNC(=O)C2CCN(C(=O)N3CCOc4ccc(Cl)cc43)CC2)cc1 | inconclusive: 5.8 µM [cytotoxic, full curve] |  |
| CCOC(=O)C1(Nc2nccs2)Sc2ccccc2NC1=O (configuration not stated) | inconclusive: 3.66 µM [cytotoxic, full curve] |  |
| CSc1ncccc1C(=O)Nc1cc(Cl)ccc1N1CCOCC1 | active: 20.6 µM |  |
| COCCNc1oc(-c2ccc(C)cc2)nc1C#N | active: 23.1 µM |  |
| Cc1ccc(NC(=O)CN(C)C(=O)c2cc(C)on2)cc1 | inconclusive: 23.1 µM [cytotoxic, single point] |  |
| COc1ccc(N2CCN(C(CNC(=O)C(=O)NCc3ccc(C)cc3)c3cccnc3)CC2)cc1 (configuration not stated) |  | inactive: -9.66% |
| O=C(CNC(=O)c1ccccc1)N/N=C/c1cc(Br)ccc1O | inconclusive: 9.2 µM [cytotoxic, partial curve] |  |
| CC1CN(C(=O)c2cc(S(=O)(=O)N3CCCC3)c(Cl)cc2Cl)CC(C)O1 (configuration not stated) | inconclusive: 14.6 µM [cytotoxic, partial curve, poor fit] |  |
| Nc1nc(SCC(=O)c2ccc([N+](=O)[O-])cc2)n[nH]1 | inconclusive: 7.31 µM [rising, partial curve] |  |
| CC(=O)Nc1cc(C(=O)NCCN2CCN(Cc3ccccc3)CC2)ccc1Sc1ccc(C)cc1 | inconclusive: 18.4 µM [cytotoxic, single point] |  |
| COc1ccccc1NC(=S)N1CCN(c2ccccc2F)CC1 |  | inactive: -6.34% |
| Cc1ccccc1Cn1c(=N)n(CC(=O)c2ccc([N+](=O)[O-])cc2)c2ccccc21 | active: 18.4 µM |  |
| O=C(c1ccco1)N(CCCN1CCOCC1)c1nc(-c2ccc(F)cc2)cs1 | inconclusive: 11.6 µM [cytotoxic, partial curve, poor fit] |  |

Record cards, as listed above.
CCn1ncc(C2=NOC(C(=O)NCc3ccc(OC)cc3)C2)c1C (configuration not stated) is listed with Potency: inconclusive: 14.6 µM [cytotoxic, partial curve, poor fit]
CC(C)n1cc(/C=C/c2cc[n+](C)cc2)c2ccccc21 is listed with activity change, negative = cytotoxicity: inactive: -14.5%
Cc1cc(C)c(NC(=O)c2ccc(CN3CCc4ccccc4C3)cc2)c(C)c1 is listed with Potency: inconclusive: 1.64 µM [cytotoxic, full curve]
